Results reported in patent publication US11629171B2 (POLYPHOR AG, priority 2017, dated 2023).
HELM strings list residues between dots; [ac] is acetyl, [am] amide, other brackets name non-standard units.

assay: general procedure: Fmoc solid-phase peptide synthesis; 2-chlorotrityl resin (polystyrene crosslinked with 1-5% divinylbenzene); conditions: whole synthesis, HPLC-MS

Substance	final HPLC purity [%]
PEPTIDE1{[ac].V.[Orn].Y.S.E.[D-Dab].[Hse].W.S.[tBuGly].[dK]}|PEPTIDE2{[Dab].T.[Dap].[Dab].[Dab].[dL].L.[Dab].[Dab].T}$PEPTIDE1,PEPTIDE1,3:R3-12:R2|PEPTIDE1,PEPTIDE2,6:R3-1:R1|PEPTIDE2,PEPTIDE2,4:R3-10:R2$$$V2.0	80
PEPTIDE1{[Hiv].C.Y.[Dab].E.[D-Dab].[Hse].W.S.[tBuGly].C.[Throl]}|PEPTIDE2{[D-Dab].[Dab].[Dab].[dL].L.[Dab].[Dab].L}$PEPTIDE1,PEPTIDE1,2:R3-11:R3|PEPTIDE1,PEPTIDE2,5:R3-1:R1|PEPTIDE2,PEPTIDE2,2:R3-8:R2$$$V2.0	85
PEPTIDE1{[ac].V.C.Y.[Dab].E.[D-Dab].T.W.S.[tBuGly].C.S}|PEPTIDE2{[Dab].T.[Dab].[Dab].[Dab].[dL].L.[Dab].[Dab].T}$PEPTIDE1,PEPTIDE1,3:R3-12:R3|PEPTIDE1,PEPTIDE2,6:R3-1:R1|PEPTIDE2,PEPTIDE2,4:R3-10:R2$$$V2.0	81
PEPTIDE1{[ac].V.[Dab].Y.[Dap].E.[D-Dab].[Hse].W.S.[tBuGly].[dT]}|PEPTIDE2{[Dab].T.[Dap].[Dab].[Dab].[dL].L.[Dab].[Dab].T}$PEPTIDE1,PEPTIDE1,3:R3-12:R2|PEPTIDE1,PEPTIDE2,6:R3-1:R1|PEPTIDE2,PEPTIDE2,4:R3-10:R2$$$V2.0	77
PEPTIDE1{[HOVal].[Orn].Y.S.E.[D-Dab].[Hse].W.S.[tBuGly].[dT]}|PEPTIDE2{[Dab].T.[Dap].[Dab].[Dab].[dL].L.[Dab].[Dab].T}$PEPTIDE1,PEPTIDE1,2:R3-11:R2|PEPTIDE1,PEPTIDE2,5:R3-1:R1|PEPTIDE2,PEPTIDE2,4:R3-10:R2$$$V2.0	70
PEPTIDE1{[HOVal].C.Y.[Dab].E.[D-Dab].[Hse].W.S.[tBuGly].C.[Glyol]}|PEPTIDE2{[Dab].T.[Dab].[Dab].[Dab].[dL].L.[Dab].[Dab].T}$PEPTIDE1,PEPTIDE1,2:R3-11:R3|PEPTIDE1,PEPTIDE2,5:R3-1:R1|PEPTIDE2,PEPTIDE2,4:R3-10:R2$$$V2.0	80
PEPTIDE1{[HOVal].C.Y.[Dap].E.[D-Dab].T.W.E.[tBuGly].C.[Throl]}|PEPTIDE2{[Dab].T.[Dab].[Dab].[Dab].[dL].L.[Dab].[Dab].T}$PEPTIDE1,PEPTIDE1,2:R3-11:R3|PEPTIDE1,PEPTIDE2,5:R3-1:R1|PEPTIDE2,PEPTIDE2,4:R3-10:R2$$$V2.0	81
PEPTIDE1{[ac].V.[Orn].Y.[Dab].E.[D-Dab].[Hse].W.S.[tBuGly].[dT]}|PEPTIDE2{[Dab].T.[Dap].[Dab].[Dab].[dL].L.[Dab].[Dab].T}$PEPTIDE1,PEPTIDE1,3:R3-12:R2|PEPTIDE1,PEPTIDE2,6:R3-1:R1|PEPTIDE2,PEPTIDE2,4:R3-10:R2$$$V2.0	95
PEPTIDE1{[ac].V.C.Y.S.E.[D-Dab].T.W.S.[tBuGly].C.S.[am]}|PEPTIDE2{[Dab].T.[Dab].[Dab].[Dab].[dL].L.[Dab].[Dab].T}$PEPTIDE1,PEPTIDE1,3:R3-12:R3|PEPTIDE1,PEPTIDE2,6:R3-1:R1|PEPTIDE2,PEPTIDE2,4:R3-10:R2$$$V2.0	93
PEPTIDE1{[ac].F.[Orn].Y.[Dap].E.[D-Dab].[Hse].W.S.[tBuGly].[dT]}|PEPTIDE2{[Dab].T.[Dap].[Dab].[Dab].[dL].L.[Dab].[Dab].T}$PEPTIDE1,PEPTIDE1,3:R3-12:R2|PEPTIDE1,PEPTIDE2,6:R3-1:R1|PEPTIDE2,PEPTIDE2,4:R3-10:R2$$$V2.0	80
PEPTIDE1{[HOVal].C.Y.[Dab].E.[D-Dab].S.W.S.[tBuGly].C.[Throl]}|PEPTIDE2{[Dab].T.[Dab].[Dab].[Dab].[dL].L.[Dab].[Dab].T}$PEPTIDE1,PEPTIDE1,2:R3-11:R3|PEPTIDE1,PEPTIDE2,5:R3-1:R1|PEPTIDE2,PEPTIDE2,4:R3-10:R2$$$V2.0	82
PEPTIDE1{[6MeHeptA].V.C.Y.[Dab].E.[D-Dab].[Hse].W.[Hse].V.C.S.[am]}|PEPTIDE2{[Dab].T.[Dab].[Dab].[Dab].[dL].L.[Dab].[Dab].T}$PEPTIDE1,PEPTIDE1,3:R3-12:R3|PEPTIDE1,PEPTIDE2,6:R3-1:R1|PEPTIDE2,PEPTIDE2,4:R3-10:R2$$$V2.0	92
PEPTIDE1{[HOVal].C.Y.[Dab].E.[D-Dab].[Hse].W.G.[tBuGly].C.[Throl]}|PEPTIDE2{[Dab].T.[Dab].[Dab].[Dab].[dL].L.[Dab].[Dab].T}$PEPTIDE1,PEPTIDE1,2:R3-11:R3|PEPTIDE1,PEPTIDE2,5:R3-1:R1|PEPTIDE2,PEPTIDE2,4:R3-10:R2$$$V2.0	84
PEPTIDE1{V.[Pen].Y.[Dab].E.[D-Dab].T.W.S.[tBuGly].C.S}|PEPTIDE2{[Dab].T.[Dab].[Dab].[Dab].[dL].L.[Dab].[Dab].T}$PEPTIDE1,PEPTIDE1,2:R3-11:R3|PEPTIDE1,PEPTIDE2,5:R3-1:R1|PEPTIDE2,PEPTIDE2,4:R3-10:R2$$$V2.0	91
PEPTIDE1{[ac].V.[Orn].Y.T.E.[D-Dab].[Hse].W.S.[tBuGly].[dT]}|PEPTIDE2{[Dab].T.[Dap].[Dab].[Dab].[dL].L.[Dab].[Dab].T}$PEPTIDE1,PEPTIDE1,3:R3-12:R2|PEPTIDE1,PEPTIDE2,6:R3-1:R1|PEPTIDE2,PEPTIDE2,4:R3-10:R2$$$V2.0	74
PEPTIDE1{[ac].V.[Orn].Y.S.E.[D-Dab].[Hse].W.S.[tBuGly].[dQ]}|PEPTIDE2{[Dab].T.[Dap].[Dab].[Dab].[dL].L.[Dab].[Dab].T}$PEPTIDE1,PEPTIDE1,3:R3-12:R2|PEPTIDE1,PEPTIDE2,6:R3-1:R1|PEPTIDE2,PEPTIDE2,4:R3-10:R2$$$V2.0	76
PEPTIDE1{[Hiv].C.Y.[Dap].E.[D-Dab].[Dab].W.S.[tBuGly].C.[Throl]}|PEPTIDE2{[Dab].T.[Dap].[Dab].[Dab].[dL].L.[Dab].[Dab].T}$PEPTIDE1,PEPTIDE1,2:R3-11:R3|PEPTIDE1,PEPTIDE2,5:R3-1:R1|PEPTIDE2,PEPTIDE2,4:R3-10:R2$$$V2.0	95
PEPTIDE1{[ac].V.C.Y.[Dap].E.[D-Dab].S.W.S.[tBuGly].C.[Throl]}|PEPTIDE2{[Dab].T.[Dap].[Dab].[Dab].[dL].L.[Dab].[Dab].T}$PEPTIDE1,PEPTIDE1,3:R3-12:R3|PEPTIDE1,PEPTIDE2,6:R3-1:R1|PEPTIDE2,PEPTIDE2,4:R3-10:R2$$$V2.0	87
PEPTIDE1{[HOVal].C.V.[Dab].E.[D-Dab].[Hse].W.S.Y.C.[Serol]}|PEPTIDE2{[Dab].T.[Dab].[Dab].[Dab].[dL].L.[Dab].[Dab].T}$PEPTIDE1,PEPTIDE1,2:R3-11:R3|PEPTIDE1,PEPTIDE2,5:R3-1:R1|PEPTIDE2,PEPTIDE2,4:R3-10:R2$$$V2.0	82
PEPTIDE1{[ac].V.[Hcy].Y.[Dap].E.[D-Dab].S.W.S.[tBuGly].C.S.[am]}|PEPTIDE2{[Dab].T.[Dap].[Dab].[Dab].[dL].L.[Dab].[Dab].T}$PEPTIDE1,PEPTIDE1,3:R3-12:R3|PEPTIDE1,PEPTIDE2,6:R3-1:R1|PEPTIDE2,PEPTIDE2,4:R3-10:R2$$$V2.0	81
PEPTIDE1{[HOVal].C.Y.[Dab].E.[D-Dab].[Hse].W.T.[tBuGly].C.[Throl]}|PEPTIDE2{[Dab].T.[Dab].[Dab].[Dab].[dL].L.[Dab].[Dab].T}$PEPTIDE1,PEPTIDE1,2:R3-11:R3|PEPTIDE1,PEPTIDE2,5:R3-1:R1|PEPTIDE2,PEPTIDE2,4:R3-10:R2$$$V2.0	90
